Consider one substance from PMC12152122.

The chains behind the UniProt entries cited, without tags or fusion partners.
UniProt Q9Y266: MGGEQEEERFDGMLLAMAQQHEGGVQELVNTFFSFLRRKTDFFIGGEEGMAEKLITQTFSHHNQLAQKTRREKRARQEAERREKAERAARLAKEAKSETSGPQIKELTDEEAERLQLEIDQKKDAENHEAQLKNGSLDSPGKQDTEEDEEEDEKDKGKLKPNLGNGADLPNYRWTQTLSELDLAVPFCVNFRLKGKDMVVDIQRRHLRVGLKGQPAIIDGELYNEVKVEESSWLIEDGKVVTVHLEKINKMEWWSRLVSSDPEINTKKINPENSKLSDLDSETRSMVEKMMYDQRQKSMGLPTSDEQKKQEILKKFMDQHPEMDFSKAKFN

This test has as its target T1, RNF41 (bait of the immunoaffinity purification for mass spectrometry, T24 cells) (UniProt Q9H4P4).
T1 sequence: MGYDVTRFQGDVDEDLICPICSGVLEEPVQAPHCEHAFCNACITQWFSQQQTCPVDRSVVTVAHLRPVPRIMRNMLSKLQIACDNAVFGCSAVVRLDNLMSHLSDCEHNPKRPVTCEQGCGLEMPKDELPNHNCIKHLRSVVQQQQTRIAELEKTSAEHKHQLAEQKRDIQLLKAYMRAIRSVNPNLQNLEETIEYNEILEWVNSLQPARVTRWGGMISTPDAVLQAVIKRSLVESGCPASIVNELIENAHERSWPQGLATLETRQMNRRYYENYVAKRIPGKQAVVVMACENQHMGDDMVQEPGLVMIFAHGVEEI
Kind of test: affinity purification with mass spectrometry; immunoaffinity purification of RNF41 from T24 cells, silver staining, mass spectrometry.

Results are given in words; binding and its absence hold for the method and conditions named. Binding seen in cells or lysates may run through a third protein. A yes stands for co-enrichment or nearness to the bait. Other partners may have been found.

As to “Nuclear distribution protein C (NUDC) (endogenous, T24 cells) (from UniProt Q9Y266 1-331)”, the binding entry was “binds”.
